PubChem BioAssay AID1508588 | Peter MacCallum Cancer Centre, 2020

- Assay: 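Knock-downs boosting vemurafenib effects on melanoma cell growth or lactate release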 (primary screen)
- Cells: human WM266.4 melanoma cells (BRAF V600 mutant)
- Reagent: siRNA pool against human genes, 40 nM
- Time to read-out: 96 h from transfection to read-out
- Challenge: vemurafenib 300 nM (about IC25), added 48 h after transfection, for 48 h; comparison arm got DMSO vehicle only
- Measurement: 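Cell gain (DAPI nuclei at end minus before drug, mean of two replicates) and medium lactate by absorbance per cell, both as ratio to non-targeting siRNA, also grouped into fold-change classes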
- Scale: cell gain with vemurafenib: higher = more cell gain than with non-targeting siRNA; lactate per cell with vemurafenib: higher = more lactate made per cell
- Call rule: 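a knock-down counts as enhancing when its fold-change classes with vehicle and with vemurafenib, taken together, show a stronger drug effect on cell gain or lactate per cell; exact class pairs not stated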
- Meaning of the calls: active = enhances vemurafenib effect; inactive = no enhancement seen
This is one part, drawn at random, of about 18,000 reagents tested. 790 of all reagents (4.4%) were called active. 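Calls rest on a combination of fold-change classes in drug and vehicle arms, not all shown here.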

For COX7C (cytochrome c oxidase subunit 7C) [SID134317547], what was measured?
cell gain with vemurafenib: 0.81; lactate per cell with vemurafenib: 1.02; Outcome: inactive

With PIH1D2 (PIH1 domain containing 2) [SID152152041], what was measured?
cell gain with vemurafenib: 0.04; lactate per cell with vemurafenib: 2.38; Outcome: inactive

For CKAP4 (cytoskeleton associated protein 4) [SID135622392], how do the results read?
cell gain with vemurafenib: 0.37; lactate per cell with vemurafenib: 1.78; Outcome: inactive

For CRADD (CARD and death domain containing adaptor protein) [SID152148694], what does the deposit list?
cell gain with vemurafenib: 0.2; lactate per cell with vemurafenib: 0.85; Outcome: inactive

With HELB (DNA helicase B) [SID134317762], how do the results read?
cell gain with vemurafenib: 1.32; lactate per cell with vemurafenib: 0.8; Outcome: inactive

With UROD (uroporphyrinogen decarboxylase) [SID152156156], what was measured?
cell gain with vemurafenib: 0.89; lactate per cell with vemurafenib: 0.64; Outcome: inactive

How did the screen score TESK2 (testis associated actin remodelling kinase 2) [SID135620925]?
cell gain with vemurafenib: 0.23; lactate per cell with vemurafenib: 1.12; Outcome: inactive

With TMEM174 (transmembrane protein 174) [SID135623195], what was measured?
cell gain with vemurafenib: 0.87; lactate per cell with vemurafenib: 1.16; Outcome: inactive

For UCP3 (uncoupling protein 3) [SID135621423], what does the deposit list?
cell gain with vemurafenib: 0.9; lactate per cell with vemurafenib: 1.11; Outcome: inactive

Which result is listed for MSTO1 (misato mitochondrial distribution and morphology regulator 1) [SID134324775]?
cell gain with vemurafenib: 1.1; lactate per cell with vemurafenib: 0.66; Outcome: inactive

What is on record for MEGF11 (multiple EGF like domains 11) [SID135622841]?
cell gain with vemurafenib: 0.59; lactate per cell with vemurafenib: 1.38; Outcome: inactive

What did the screen give for CMTM8 (CKLF like MARVEL transmembrane domain containing 8) [SID134315246]?
cell gain with vemurafenib: 0.41; lactate per cell with vemurafenib: 0.48; Outcome: active

With GPR157 (G protein-coupled receptor 157) [SID135623091], what was measured?
cell gain with vemurafenib: -0.02; lactate per cell with vemurafenib: 0.3; Outcome: active

With SNF8 (SNF8 subunit of ESCRT-II) [SID135620869], what was measured?
cell gain with vemurafenib: 0.61; lactate per cell with vemurafenib: 0.75; Outcome: inactive

For TMEM31 (transmembrane protein 31) [SID135623642], how do the results read?
cell gain with vemurafenib: 1.11; lactate per cell with vemurafenib: 0.36; Outcome: inactive

Which result is listed for EFCAB6 (EF-hand calcium binding domain 6) [SID135622696]?
cell gain with vemurafenib: 0.8; lactate per cell with vemurafenib: 1.25; Outcome: inactive

How did the screen score PCYT2 (phosphate cytidylyltransferase 2, ethanolamine) [SID152152176]?
cell gain with vemurafenib: 0.88; lactate per cell with vemurafenib: 0.77; Outcome: inactive

With RHOV (ras homolog family member V) [SID135621188], what was measured?
cell gain with vemurafenib: 0.61; lactate per cell with vemurafenib: 0.82; Outcome: inactive

How did the screen score R3HDM2 (R3H domain containing 2) [SID152151458]?
cell gain with vemurafenib: 0.68; lactate per cell with vemurafenib: 0.56; Outcome: inactive

What did the screen give for EFCAB13 (EF-hand calcium binding domain 13) [SID135623502]?
cell gain with vemurafenib: 0.74; lactate per cell with vemurafenib: 0.51; Outcome: inactive

What is on record for MC5R (melanocortin 5 receptor) [SID134311100]?
cell gain with vemurafenib: 0.62; lactate per cell with vemurafenib: 1; Outcome: inactive

Which result is listed for DEPDC1B (DEP domain containing 1B) [SID134318033]?
cell gain with vemurafenib: 0.68; lactate per cell with vemurafenib: 1.12; Outcome: inactive

With UBXN4 (UBX domain protein 4) [SID135622686], how do the results read?
cell gain with vemurafenib: 0.91; lactate per cell with vemurafenib: 0.9; Outcome: inactive

For LCE1C (late cornified envelope 1C) [SID152146861], what was measured?
cell gain with vemurafenib: 0.54; lactate per cell with vemurafenib: 1.06; Outcome: inactive

Quoted from the entries so far, 2 entries:
UROD (uroporphyrinogen decarboxylase) [SID152156156] → cell gain with vemurafenib = 0.89; lactate per cell with vemurafenib = 0.64; Outcome = inactive
TESK2 (testis associated actin remodelling kinase 2) [SID135620925] → cell gain with vemurafenib = 0.23; lactate per cell with vemurafenib = 1.12; Outcome = inactive

Additional entries:
How did the screen score CDCA4 (cell division cycle associated 4) [SID152154753]?
cell gain with vemurafenib: 0.39; lactate per cell with vemurafenib: 1.54; Outcome: inactive

How did the screen score MPND (MPN domain containing) [SID152156112]?
cell gain with vemurafenib: 0.38; lactate per cell with vemurafenib: 0.99; Outcome: inactive

What did the screen give for EDA2R (ectodysplasin A2 receptor) [SID134312976]?
cell gain with vemurafenib: 0.54; lactate per cell with vemurafenib: 1.9; Outcome: inactive

For NIF3L1 (NGG1 interacting factor 3 like 1) [SID152152370], what was measured?
cell gain with vemurafenib: 0.27; lactate per cell with vemurafenib: 1.33; Outcome: inactive

Which result is listed for ZFP1 (ZFP1 zinc finger protein) [SID152151262]?
cell gain with vemurafenib: 0.35; lactate per cell with vemurafenib: 0.52; Outcome: inactive

For C1S (complement C1s) [SID134311223], what does the deposit list?
cell gain with vemurafenib: 0.2; lactate per cell with vemurafenib: 0.42; Outcome: inactive

With PMPCA (peptidase, mitochondrial processing subunit alpha) [SID134313591], how do the results read?
cell gain with vemurafenib: 0.43; lactate per cell with vemurafenib: 0.62; Outcome: inactive

How did the screen score MINPP1 (multiple inositol-polyphosphate phosphatase 1) [SID152156473]?
cell gain with vemurafenib: 0.6; lactate per cell with vemurafenib: 1.42; Outcome: inactive

What is on record for NDUFS6 (NADH:ubiquinone oxidoreductase subunit S6) [SID152153660]?
cell gain with vemurafenib: 0; lactate per cell with vemurafenib: 1.39; Outcome: inactive

Which result is listed for PLSCR2 (phospholipid scramblase 2) [SID134329463]?
cell gain with vemurafenib: 0.49; lactate per cell with vemurafenib: 1.22; Outcome: inactive

With TCEA3 (transcription elongation factor A3) [SID134325274], what does the deposit list?
cell gain with vemurafenib: 0.54; lactate per cell with vemurafenib: 1.07; Outcome: inactive

Which result is listed for RTP3 (receptor transporter protein 3) [SID134318830]?
cell gain with vemurafenib: 0.53; lactate per cell with vemurafenib: 0.66; Outcome: inactive

For TEK (TEK receptor tyrosine kinase) [SID152152932], what was measured?
cell gain with vemurafenib: 0.91; lactate per cell with vemurafenib: 0.82; Outcome: inactive

For ANKRD2 (ankyrin repeat domain 2) [SID134317964], what does the deposit list?
cell gain with vemurafenib: 0.15; lactate per cell with vemurafenib: 0.92; Outcome: inactive

For RPS23 (ribosomal protein S23) [SID152149988], what was measured?
cell gain with vemurafenib: -0.05; lactate per cell with vemurafenib: 3.7; Outcome: inactive

With GLIPR1L2 (GLIPR1 like 2) [SID135623178], what was measured?
cell gain with vemurafenib: 1.16; lactate per cell with vemurafenib: 0.2; Outcome: inactive
